From publication PMC6896172, “Successful Targeting of the Warburg Effect in Prostate Cancer by Glucose-Conjugated 1,4-Naphthoquinones” (Cancers, 2019)

Test system: 22Rv1 cells
Assay: Global proteome analysis (LC-MS/MS, DIA) of differentially expressed proteins
Assay type: cell-based, human
Conditions: 5 µM, 48 h
Procedure: 22Rv1 cells were seeded in T75 culture bottles (4 × 10^6 cells/bottle in 20 mL/bottle), treated for 48 h with the 5 µM of compound 11 or vehicle (DMSO), harvested by scratching, washed twice with ice-cold PBS and flash-frozen. Cells were lysed and sonicated. The protein extracts were then heat-denaturated, reduced, alkylated and digested by trypsin. Peptides were chromatographically separated using full recovery autosampler vials and a nano-UPLC system (Acquity, Waters Corporation, Milford, MS, USA), coupled via electrospray ionization (ESI) to a tandem mass spectrometer equipped with a quadrupole and an orbitrap (QExactive, Thermo Fisher Scientific, Bremen, Germany), using MS/MS mode in data dependent acquisition (DDA) and data independent acquisition (DIA). The peptides, analyzed with DDA-LC-MS/MS, were identified with the search engine Sequest, integrated in the Proteome Discoverer software version 2.0 (Thermo Fischer Scientific) using the human Uniprot protein database (EMBL; Hinxton Cambridge, UK, release December 2018). […] For the details of sample preparation and proceeding, data acquisition and analysis see the Supplementary information. […]
serum (FBS, Invitrogen) and 1% penicillin/streptomycin (Invitrogen)). […]
0.1% FA in Acetonitrile (ACN), both at pH = 3). […] The eluting peptides were analyzed on a quadrupole-orbitrap mass spectrometer (QExactive, Thermo Fisher Scientific, Bremen, Germany) in data dependent acquisition (DDA) and data independent acquisition (DIA) for quantification.
In DDA mode, one replicate of each cell line was randomly chosen and 1 µg per sample was used per LC-MS/MS run to build a reference spectral library used for data extraction of samples acquired in DIA mode. For DDA, the 12 most intense ions per precursor scan (1 × 10 6 ions, 70,000 Resolution, 120 ms fill time) were analyzed by MS/MS (HCD at 25 normalized collision energy, 1 × 105 ions, 17,500 Resolution, 50 ms fill time) in a range of 400–1300 m/z. […] For DIA, 1 µg of each sample was analyzed using a 30 sequential 20 Da fixed window method covering the mass range from 400 –1000 m/z. […]

CC1(C)OC2OC(C(O)COC3=CC(=O)c4cccc(O)c4C3=O)C(O)C2O1 (stereo not drawn) [Compound 11] was tested, and the “number of proteins with decreased expressional levels (downregulation)” value was 182, the “number of proteins with increased expressional levels (upregulation)” value was 92 and the “number of significantly regulated proteins (1.5 ≤ fold change ≤ 1/1.5, p ≤ 0.05)” value (2163 proteins quantified) was 274.
